The test can be described thus: IkB Signaling. As to conditions: ABC-DLBCL IkBa-CBG/CBR dual luciferase ratio (green luciferase fused to IkBa over red control in OCI-Ly3 lymphoma cells), 4 h. In short, it runs like this:
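In this assay, an IκBα–CBG68 fusion accumulates when IKK-driven degradation is blocked; native CBR normalizes for cell number. OCI-Ly3 cells were treated 4 h with compound and doxycycline, then green and red light read after Chroma-Glo addition.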

Where [1] appears, read: measured here: control luc red channel unless noted.

In general, AC50 refers to the concentration at which the activity in the assay is half-maximal.

The list shows a part of the results. Further columns of the screen follow, without active or inactive calls. Compounds called inactive in the main read-out are mostly missing here. Potencies come from curve fits of mixed quality, noted in brackets.

Turning to `CCC(=O)c1ccc(CCCCCC(=O)O)s1`, under setting [1], the AC50 is 0.794 µM [falling, full curve].

For the compound `Cc1ccc(C)c(N2CCN(CCCNC(=O)c3ccc4nc(N5CCCCC5)sc4c3)CC2)c1`, the AC50 under setting [1] was 15.8 µM [falling, partial curve].

`Cc1ccc(-c2nnc(Nc3ccccc3)c3ccccc23)cc1S(=O)(=O)NCc1nc2ccccc2[nH]1`: under setting [1], the half-maximal activity concentration (AC50) was 5.01 µM [falling, partial curve].

For the compound `Cc1cccc(N2CCN(C(=O)CCS(=O)(=O)c3ccc4c(c3)oc(=O)n4C)CC2)c1C`, the AC50 under setting [1] was 31.6 µM [falling, single point].

As for `O=C(CSc1nnnn1-c1ccccc1Cl)Nc1ccc2c(c1)OCCO2`, the AC50 under setting [1] was 15.8 µM [falling, partial curve].

With `Cc1oc2c(O)c(O)ccc2c(=O)c1-c1cnn(-c2ccccc2)c1`, under setting [1], the concentration at half-maximal activity (AC50) is 10 µM [falling, partial curve].

Consider `COc1ccccc1C(=O)Nc1cccc(C(=O)OCc2cc(=O)n3nc(C)sc3n2)c1`, for which the AC50 under setting [1] was 12.6 µM [falling, partial curve].

As for `O=C(CN1C(=O)C2(SCC(=O)N2c2ccccc2)c2ccccc21)NCc1ccccc1` (centres undefined), under setting [1], the half-maximal activity concentration (AC50) is 12.6 µM [falling, partial curve].

With `CCCNC(=O)C(CC)n1nc(CC)n2c(cc3oc(C)cc32)c1=O` (centres undefined), the AC50 under setting [1] is 5.01 µM [rising, partial curve, poor fit].

With `COc1ccc(-c2ccc(C(=S)N3CCN(C(C)=O)CC3)o2)cc1`, the half-maximal activity concentration (AC50) under setting [1] is 39.8 µM [rising, single point] [measured here: IkB-luc green channel].

As to `COc1ccc2nc(NC(=O)c3ccc(Br)s3)sc2c1`, the AC50 under setting [1] was 3.98 µM [falling, full curve, poor fit].

Turning to `Cc1cc(C)n(-c2nc3ccccc3nc2N2CCN(c3cccc(C)c3C)CC2)n1`, the half-maximal activity concentration (AC50) under setting [1] is 6.31 µM [falling, single point].

As for `c1ccc(/N=C2\N=C(Nc3ccccn3)c3ccccc32)nc1`, the concentration at half-maximal activity (AC50) under setting [1] was 39.8 µM [rising, single point] [measured here: IkB-luc green channel].

Take `O=C(CSc1nc2c([nH]c3ccccc32)c(=O)n1-c1cccc(Cl)c1)N1CCOCC1`: the half-maximal activity concentration (AC50) under setting [1] was 39.8 µM [rising, single point] [measured here: IkB-luc green channel].

On to `COc1cccc(CNC(=O)C2(c3cccs3)CCOCC2)c1`, for which, under setting [1], the AC50 was 2 µM [rising, partial curve].

Take `CCC(NC(=O)c1ccccc1NC(=O)c1ccccc1)C(=O)O` (centres undefined): under setting [1], the half-maximal activity concentration (AC50) is 10 µM [falling, partial curve].

As to `O=C(c1cc(-c2ccc3c(c2)OCO3)on1)N1CCN(c2ccccc2)CC1`, under setting [1], the AC50 was 0.0251 µM [falling, full curve].

Consider `CN1CC2=Cc3ccccc3OC23Oc2ccccc2C=C3C1`, for which the AC50 is, setting by setting: (measured here: IkB-luc green channel) 3.98 µM [rising, partial curve]; (measured here: control luc red channel) 10 µM [falling, partial curve].

For `O=C1NC(c2cccs2)Nc2sc3c(c21)CCCC3` (centres undefined), the AC50 under setting [1] is 39.8 µM [falling, single point].

Take `CCOc1ccc(-n2c(CC)nc3c(cnn3-c3ccc(Cl)cc3)c2=O)cc1`: under setting [1], the concentration at half-maximal activity (AC50) is 10 µM [falling, partial curve].

With `Cc1oc(-c2cccc(Cl)c2)nc1CN1CCCC(C(=O)N2CCN(c3ccc(F)cc3)CC2)C1` (centres undefined), the AC50 under setting [1] is 31.6 µM [falling, single point].

Turning to `Cc1cccc(Cn2c(C)c(CNC3CCCCCC3)c(C(=O)O)c2C)c1`, the AC50 under setting [1] is 25.1 µM [falling, single point].

Turning to `O=C(Cn1c(=O)c2ccccc2n(CC(=O)Nc2ccc(F)cc2)c1=O)NCCc1ccccc1`, under setting [1], the AC50 is 12.6 µM [falling, partial curve].

Consider `Cc1c(NC(=O)C(C)(C)C)cccc1-c1nc2ccccc2s1`, for which the AC50 under setting [1] is 15.8 µM [falling, partial curve].

As to `Cn1cc(S(=O)(=O)N2CCc3ccccc32)cc1C(=O)Nc1ccc(C(F)(F)F)cc1`, under setting [1], the AC50 was 20 µM [falling, single point].

In the case of `Cn1cccc1Cc1nnc(SCC(=O)Nc2ccc(Cl)cc2)n1-c1ccc(F)cc1`, the concentration at half-maximal activity (AC50) under setting [1] was 12.6 µM [falling, partial curve].

Regarding `CCc1ccc(NC(=O)CSc2nc3c([nH]c4ccccc43)c(=O)n2C)cc1`, the concentration at half-maximal activity (AC50) under setting [1] was 15.8 µM [falling, partial curve].

`CCOC(=O)c1cc2c(=O)n3ccccc3nc2n(CC2CCCO2)c1=NC(=O)c1ccccc1OCC` (centres undefined): the AC50 under setting [1] was 39.8 µM [falling, single point].

Regarding `COc1ccccc1OCCCn1c(C2CC(=O)N(c3ccc(F)cc3)C2)nc2ccccc21` (centres undefined), the AC50 under setting [1] is 25.1 µM [falling, partial curve].

On to `COc1ccc(CCNC(=O)c2c(Nc3ccccc3C)sc(C(=O)c3ccccc3)c2N)cc1OC`, for which the AC50 under setting [1] was 39.8 µM [falling, single point].

Turning to `CCCCC(CC)CNC(=O)c1ccc(Cn2c(=O)[nH]c3cc(OC)c(OC)cc3c2=O)cc1` (centres undefined), the AC50 under setting [1] is 15.8 µM [falling, partial curve].

Regarding `COc1ccccc1-c1cc(C(=O)NC(C)C)no1`, the AC50 under setting [1] was 0.398 µM [falling, full curve].

In the case of `COc1ccc(-c2nn(C)c3sc(C(=O)Nc4cc(OC)c(OC)c(OC)c4)cc23)cc1OC`, the AC50 under setting [1] is 3.16 µM [falling, full curve].

Take `CCCN(C(=O)c1c(C)oc2ncn(CC(C)C)c(=O)c12)c1ccccc1C`: the AC50 under setting [1] was 7.94 µM [falling, partial curve].

With `COc1cccc(CN2CCCN(Cc3ccc(F)cc3)S2(=O)=O)c1`, the AC50 under setting [1] is 15.8 µM [falling, partial curve].

As to `CCCOc1ccc(C(=O)Nc2cc(-c3nc4ccccc4[nH]3)ccc2C)cc1`, the AC50 under setting [1] was 6.31 µM [rising, single point].

For `COc1ccc(C)cc1NC(=O)C1CCN(S(=O)(=O)Cc2ccccc2)CC1`, the concentration at half-maximal activity (AC50) under setting [1] was 20 µM [falling, single point].

As to `Cc1ccccc1OCc1nnc(SCc2cc(=O)c3cc(F)ccc3[nH]2)n1C`, the AC50 under setting [1] is 3.16 µM [falling, partial curve].

Regarding `COc1ccc(-c2ccc(CCC(=O)O)n2-c2ccccc2C(F)(F)F)cc1`, the AC50 under setting [1] was 12.6 µM [falling, single point].

On to `COc1ccc(-c2nc3ccccc3o2)cc1NC(=O)c1cc([N+](=O)[O-])ccc1N1CCOCC1`, for which the half-maximal activity concentration (AC50) under setting [1] is 3.98 µM [falling, full curve].

As to `CCC1CN(CC(=O)NCc2cccc(Br)c2)c2ccccc2S1` (centres undefined), under setting [1], the concentration at half-maximal activity (AC50) is 2.51 µM [falling, single point].

For `COC(=O)Cc1c(C)nc2nc(NCc3ccc(Br)cc3)[nH]n2c1=O`, under setting [1], the half-maximal activity concentration (AC50) is 12.6 µM [falling, partial curve].

Turning to `O=C(CCCCCn1c(=O)[nH]c2ccccc2c1=O)NCCCN1CCN(c2ccccc2F)CC1`, the concentration at half-maximal activity (AC50) under setting [1] was 20 µM [falling, partial curve].

Turning to `CCOC(=O)CN(Cc1ccccc1)C(C(=O)NC1CCCCC1)c1ccccc1` (centres undefined), under setting [1], the half-maximal activity concentration (AC50) is 12.6 µM [falling, partial curve].

For the compound `CCOc1ccc(-n2cc(-c3ccccc3)c3c(NCc4ccccc4)ncnc32)cc1`, under setting [1], the AC50 was 0.0631 µM [rising, full curve].

Consider `O=C1C(c2ccncc2)=C(O)c2ccccc21`, for which the half-maximal activity concentration (AC50) under setting [1] was 20 µM [falling, single point].

For the compound `COc1ccc(CNC(=O)C2CCN(S(=O)(=O)N3CCC(C)CC3)CC2)c(OC)c1`, the AC50 under setting [1] is 31.6 µM [falling, single point].

On to `COc1cccc(NC(=O)C2CC(=O)N(c3ccc(Br)cc3)C2)c1` (centres undefined), for which, under setting [1], the AC50 was 12.6 µM [falling, partial curve].

Turning to `O=C(NC1=NCCS1)c1cc2ccccc2o1`, the AC50 under setting [1] is 12.6 µM [falling, partial curve].

On to `COc1ccc(OC)c(CCNC(=O)c2ccc3[nH]c(C)c(C)c3c2)c1`, for which the AC50 under setting [1] is 39.8 µM [falling, single point].

With `COc1ccc(CNC(=O)c2cc3c(=O)n4ccccc4nc3n(Cc3ccco3)c2=N)cc1`, under setting [1], the AC50 was 7.94 µM [falling, full curve].

In the case of `COc1cccc(CNC(=O)c2cc3c(=O)n(C)c4ccccc4c3n2C)c1`, the half-maximal activity concentration (AC50) under setting [1] was 7.94 µM [falling, single point].

Regarding `Cc1ccc(C)c(N2CCN(C(=O)c3cccn3-c3nnc(N4CCCCC4)s3)CC2)c1`, under setting [1], the AC50 was 39.8 µM [falling, partial curve].

As for `COc1ccccc1CCNC(=O)CCc1c(C)c2cc3c(C)coc3cc2oc1=O`, under setting [1], the AC50 was 39.8 µM [falling, single point].

Turning to `CCN1CCN(CCCNC(=O)c2cc3c(s2)-c2c(C)cccc2OC3)CC1`, the AC50 under setting [1] is 31.6 µM [falling, single point].

For `Cc1ccc(Nc2cc(C(=O)NC3CCCC3)c3ccccc3n2)c(C)c1`, the AC50 under setting [1] was 15.8 µM [falling, single point].

Turning to `CN(Cc1ccccc1)C(=O)Cn1ncc2c3ccccc3n(Cc3cccc(Cl)c3)c2c1=O`, the AC50 under setting [1] was 10 µM [falling, partial curve].

For the compound `O=S(=O)(NCCOCC(F)(F)C(F)F)c1ccc2oc3ccccc3c2c1`, the concentration at half-maximal activity (AC50) under setting [1] was 10 µM [falling, partial curve].

As to `COc1cc(C2c3c(oc4ccccc4c3=O)C(=O)N2Cc2ccccc2Cl)ccc1O` (centres undefined), the half-maximal activity concentration (AC50) under setting [1] was 39.8 µM [falling, single point].

`Cc1ccc2nc(-c3ccccc3)cc(C(=O)O)c2c1`: the AC50 under setting [1] was 20 µM [falling, partial curve].

Consider `Cc1ccc2nc(SCc3nc(-c4ccccc4C)no3)[nH]c2c1`, for which the concentration at half-maximal activity (AC50) under setting [1] is 31.6 µM [falling, single point].

With `Cc1ccc(C(=O)CCNc2ccccc2)o1`, the AC50 under setting [1] is 25.1 µM [falling, single point].

Take `Cc1ccccc1Cn1c(Oc2ccccc2F)nc2c1c(=O)n(C)c(=O)n2C`: the AC50 under setting [1] was 15.8 µM [falling, partial curve].

Values taken from PubChem BioAssay AID445 (National Center for Advancing Translational Sciences (NCATS), 2006).
